Paper PMC11523043
Results are given in words; binding and its absence hold for the method and conditions named. Binding seen in cells or lysates may run through a third protein. Some binding calls cover weakened binding; strength is not graded here. For some of these results: Sequences can lack the tags named with a protein.

Columns and labels:
[1] = target: T1, Flag-USP36 C-terminal nucleolar localization signal (NoLS)-containing region (amino acids 801-1121) (UniProt Q9P275); experiment: co-IP; lysates of cells (HEK293, HeLa or H1299) transfected with the Flag-tagged bait, anti-Flag (M2) agarose, 4°C for 4 hours, 50 mmol/L Tris-HCl pH 8.0, 0.5% Nonidet P-40, 150 mmol/L NaCl; endogenous partner detected by IB; for Flag-USP36 also in the presence of 100 μg/mL RNase A and 100 U/mL RNase T1
T1 sequence: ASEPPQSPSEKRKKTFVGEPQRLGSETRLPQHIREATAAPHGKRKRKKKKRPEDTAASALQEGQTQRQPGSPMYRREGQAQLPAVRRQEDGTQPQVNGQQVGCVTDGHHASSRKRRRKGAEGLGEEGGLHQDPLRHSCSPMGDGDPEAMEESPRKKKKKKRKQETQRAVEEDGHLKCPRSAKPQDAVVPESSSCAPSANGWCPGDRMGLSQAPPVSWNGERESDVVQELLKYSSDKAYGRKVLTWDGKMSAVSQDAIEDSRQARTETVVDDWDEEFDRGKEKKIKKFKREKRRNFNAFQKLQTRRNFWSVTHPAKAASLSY

Flag-tagged USP36 [2] = target: T2, Flag-tagged USP36 (UniProt Q9P275); experiment: as above
T2 sequence: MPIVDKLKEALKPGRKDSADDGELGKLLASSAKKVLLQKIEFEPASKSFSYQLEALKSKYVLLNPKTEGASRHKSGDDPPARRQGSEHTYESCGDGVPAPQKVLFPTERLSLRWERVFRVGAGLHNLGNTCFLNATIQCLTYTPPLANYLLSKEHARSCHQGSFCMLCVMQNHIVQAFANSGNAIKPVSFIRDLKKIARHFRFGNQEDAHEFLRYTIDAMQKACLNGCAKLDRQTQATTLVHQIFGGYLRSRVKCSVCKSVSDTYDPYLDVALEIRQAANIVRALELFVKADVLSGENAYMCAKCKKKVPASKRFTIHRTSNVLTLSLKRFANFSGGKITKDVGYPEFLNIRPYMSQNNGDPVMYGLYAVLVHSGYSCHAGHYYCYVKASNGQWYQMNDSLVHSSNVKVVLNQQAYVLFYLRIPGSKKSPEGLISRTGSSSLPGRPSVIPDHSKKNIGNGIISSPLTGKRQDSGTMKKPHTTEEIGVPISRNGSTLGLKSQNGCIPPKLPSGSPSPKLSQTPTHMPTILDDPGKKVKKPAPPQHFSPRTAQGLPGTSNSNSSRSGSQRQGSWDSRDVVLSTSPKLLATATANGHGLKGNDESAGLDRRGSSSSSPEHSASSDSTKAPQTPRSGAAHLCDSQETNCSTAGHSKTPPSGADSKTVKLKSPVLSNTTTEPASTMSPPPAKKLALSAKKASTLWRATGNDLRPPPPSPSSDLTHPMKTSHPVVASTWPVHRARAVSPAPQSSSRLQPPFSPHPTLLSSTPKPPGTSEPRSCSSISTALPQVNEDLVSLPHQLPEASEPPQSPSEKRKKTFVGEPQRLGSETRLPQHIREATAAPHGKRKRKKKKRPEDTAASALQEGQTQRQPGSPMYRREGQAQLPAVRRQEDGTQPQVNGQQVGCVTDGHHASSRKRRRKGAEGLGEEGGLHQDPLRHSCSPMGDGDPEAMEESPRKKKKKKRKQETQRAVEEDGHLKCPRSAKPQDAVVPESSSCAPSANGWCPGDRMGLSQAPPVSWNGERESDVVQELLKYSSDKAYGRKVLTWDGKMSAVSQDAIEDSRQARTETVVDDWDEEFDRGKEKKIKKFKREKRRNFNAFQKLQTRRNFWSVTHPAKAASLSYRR

[3] = target: T3, endogenous USP36 (human (endogenous in HEK293, H1299)) (UniProt Q9P275); experiment: co-IP; 293 cell lysates immunoprecipitated with anti-USP36, IB with anti-Las1L antibody; both endogenous
T3 sequence: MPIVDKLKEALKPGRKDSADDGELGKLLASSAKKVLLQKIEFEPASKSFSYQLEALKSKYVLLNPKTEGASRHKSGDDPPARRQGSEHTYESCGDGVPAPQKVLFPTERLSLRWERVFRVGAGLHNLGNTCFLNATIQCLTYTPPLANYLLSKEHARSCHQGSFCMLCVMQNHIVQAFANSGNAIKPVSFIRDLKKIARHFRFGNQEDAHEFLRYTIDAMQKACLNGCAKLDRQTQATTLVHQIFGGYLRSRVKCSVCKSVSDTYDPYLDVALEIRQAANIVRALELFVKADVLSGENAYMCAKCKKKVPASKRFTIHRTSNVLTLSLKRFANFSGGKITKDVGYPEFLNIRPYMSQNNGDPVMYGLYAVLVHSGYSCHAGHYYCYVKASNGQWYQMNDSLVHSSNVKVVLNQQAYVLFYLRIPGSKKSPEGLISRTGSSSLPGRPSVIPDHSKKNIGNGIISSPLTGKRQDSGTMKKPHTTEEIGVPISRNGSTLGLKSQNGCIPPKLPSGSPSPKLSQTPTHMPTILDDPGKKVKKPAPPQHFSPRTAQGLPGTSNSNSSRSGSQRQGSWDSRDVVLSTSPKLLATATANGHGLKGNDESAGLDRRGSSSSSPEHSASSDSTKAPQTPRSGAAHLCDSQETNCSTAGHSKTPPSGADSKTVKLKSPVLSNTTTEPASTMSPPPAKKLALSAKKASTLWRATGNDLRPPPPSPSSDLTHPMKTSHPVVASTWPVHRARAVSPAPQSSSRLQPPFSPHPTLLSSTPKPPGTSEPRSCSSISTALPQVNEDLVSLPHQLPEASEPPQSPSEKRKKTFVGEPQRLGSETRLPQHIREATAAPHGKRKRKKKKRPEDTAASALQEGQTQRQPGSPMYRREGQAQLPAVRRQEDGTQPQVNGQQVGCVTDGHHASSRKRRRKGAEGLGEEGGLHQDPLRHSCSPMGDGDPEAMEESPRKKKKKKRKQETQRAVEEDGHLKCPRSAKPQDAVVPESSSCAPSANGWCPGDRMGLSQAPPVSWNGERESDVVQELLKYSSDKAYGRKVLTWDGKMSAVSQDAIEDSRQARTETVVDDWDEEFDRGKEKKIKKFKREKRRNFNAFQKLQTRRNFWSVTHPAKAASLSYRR

Flag-tagged USP36 [4] = target: T2, Flag-tagged USP36; experiment: co-IP; soluble nucleolar fraction of HeLa cells stably expressing Flag-USP36 (high-salt RIPA lysis, diluted), anti-Flag antibody, followed by IB

Measured: binding

B1: endogenous Las1L (enzyme, UniProt Q9Y4W2 1-734)
chain: MSWESGAGPGLGSQGMDLVWSAWYGKCVKGKGSLPLSAHGIVVAWLSRAEWDQVTVYLFCDDHKLQRYALNRITVWRSRSGNELPLAVASTADLIRCKLLDVTGGLGTDELRLLYGMALVRFVNLISERKTKFAKVPLKCLAQEVNIPDWIVDLRHELTHKKMPHINDCRRGCYFVLDWLQKTYWCRQLENSLRETWELEEFREGIEEEDQEEDKNIVVDDITEQKPEPQDDGKSTESDVKADGDSKGSEEVDSHCKKALSHKELYERARELLVSYEEEQFTVLEKFRYLPKAIKAWNNPSPRVECVLAELKGVTCENREAVLDAFLDDGFLVPTFEQLAALQIEYEDGQTEVQRGEGTDPKSHKNVDLNDVLVPKPFSQFWQPLLRGLHSQNFTQALLERMLSELPALGISGIRPTYILRWTVELIVANTKTGRNARRFSAGQWEARRGWRLFNCSASLDWPRMVESCLGSPCWASPQLLRIIFKAMGQGLPDEEQEKLLRICSIYTQSGENSLVQEGSEASPIGKSPYTLDSLYWSVKPASSSFGSEAKAQQQEEQGSVNDVKEEEKEEKEVLPDQVEEEEENDDQEEEEEDEDDEDDEEEDRMEVGPFSTGQESPTAENARLLAQKRGALQGSAWQVSSEDVRWDTFPLGRMPGQTEDPAELMLENYDTMYLLDQPVLEQRLEPSTCKTDTLGLSCGVGSGNCSNSSSSNFEGLLWSQGQLHGLKTGLQLF
binds: [1] | Flag-tagged USP36 [2] | [3] | Flag-tagged USP36 [4]
